Experimental findings from paper PMC10755771 are described below.

Protein sequences, listed by entry. Tags and fused reporters are not part of them. Lines headed by an entry give the natural chain unless they say otherwise; changes in a name come on top.
UniProt Q92783: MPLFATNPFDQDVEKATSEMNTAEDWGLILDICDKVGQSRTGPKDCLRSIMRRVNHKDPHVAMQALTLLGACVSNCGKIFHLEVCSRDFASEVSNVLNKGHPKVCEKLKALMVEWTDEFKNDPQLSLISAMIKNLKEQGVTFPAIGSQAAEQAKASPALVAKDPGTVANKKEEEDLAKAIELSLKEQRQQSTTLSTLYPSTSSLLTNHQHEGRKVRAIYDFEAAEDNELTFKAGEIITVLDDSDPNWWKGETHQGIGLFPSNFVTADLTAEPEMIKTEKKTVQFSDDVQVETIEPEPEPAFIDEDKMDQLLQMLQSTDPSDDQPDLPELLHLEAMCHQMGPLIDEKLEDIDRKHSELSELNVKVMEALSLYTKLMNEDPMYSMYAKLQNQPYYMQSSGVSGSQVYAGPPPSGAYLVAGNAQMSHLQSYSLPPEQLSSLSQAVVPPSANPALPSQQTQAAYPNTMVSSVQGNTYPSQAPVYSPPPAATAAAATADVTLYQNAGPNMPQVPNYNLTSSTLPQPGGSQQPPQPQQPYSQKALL
UniProt P49407: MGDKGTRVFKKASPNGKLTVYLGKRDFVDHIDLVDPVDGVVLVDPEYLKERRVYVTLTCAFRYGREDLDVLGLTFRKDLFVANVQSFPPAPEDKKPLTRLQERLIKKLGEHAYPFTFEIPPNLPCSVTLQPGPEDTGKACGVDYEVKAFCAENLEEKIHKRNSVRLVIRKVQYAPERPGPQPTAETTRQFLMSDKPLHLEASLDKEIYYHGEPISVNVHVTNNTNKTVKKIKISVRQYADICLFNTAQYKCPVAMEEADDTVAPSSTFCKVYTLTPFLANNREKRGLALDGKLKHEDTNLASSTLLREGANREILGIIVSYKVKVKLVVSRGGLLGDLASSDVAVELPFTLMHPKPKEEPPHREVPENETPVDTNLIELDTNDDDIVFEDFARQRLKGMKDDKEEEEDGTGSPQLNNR

This experiment has as its target STAM1-His K136R (UniProt Q92783). Kind of experiment: pull-down; purified βarr1 (0.1 μM) incubated with WT or K136R STAM1-His (0.3 μM in the methods, 3 μM in the legend) in TBS (20 mM Tris-HCl pH 7.5, 150 mM NaCl) for 20 min at 37 °C; complexes isolated on TALON cobalt resin, 4 °C 1 h; eluted with 250 mM imidazole; immunoblotting; both purified. On the technique in general: A western blot detects proteins with antibodies after separation by electrophoresis.

No constants are given. Whether binding was seen depends on the method and setting. A result given as binding can be weak or reduced; the word gives no strength.

For “βarrestin1 (untagged, wild type) (from UniProt P49407 1-418)”, the binding result is reported as “binds”.
